Test results: the supplement of paper PMC7877785
± gives the uncertainty stated by the source. The uncertainty is large for many entries.

Assay: self-splicing fitness, log relative to wild type (ln ratio); higher = more splicing; Tetrahymena group I intron in knt gene, E. coli kanamycin selection, DiMSum; sequences stand for … in CUCUCU…GGAGGGAAAAGUUAUCAGGCAUGCACCUGGUAGCUAGUCUUUAAACCAAUAGAUUGCAUCGGUUUAAAAGGCAAGACCGUCAAAUUGCGGGAAAGGGGUCAACAGCCGUUCAGUACCAAGUCUCAGGGGAAACUUUGAGAUGGCCUUGCAAAGGGUAUGGUAAUAAGCUGACGGACAUGGUCCUAACCACGCAGCCAAGUCCUAAGUCAACAGAUCUUCUGUUGAUAUGGAUGCAGUUCACAGACUAAAUGUCGGUCGGGGAAGAUGUAUUCUUCUCAUAAGAUAUAGUCGGACCUCUCCUUAAUGGGAGCUAGCGGAUGAAGUGAUGCAACACUGGAGCCGCUGGGAACUAAUUUGUAUGCGAAAGUAUAUUGAUUAGUUUUGGAGUACUCGUGGUCG
In short: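 Fitness was computed with DiMSum as the error-weighted combination of replicate fold changes, kanamycin versus none, each normalised to wild type. The library randomised all eight intron nucleotides of the P1ex region, with the intron placed in the knt kanamycin-resistance gene on pET-22b(+) in E. coli BL21(DE3). Six replicate transformations were grown overnight at 37°C or 30°C on LB agar with or without 25 μg/mL kanamycin, plus 100 μg/mL carbenicillin, 50 μM IPTG and 0.2% rhamnose. Pooled colonies were amplicon-sequenced on an Illumina HiSeq 2500.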

Sequence | self-splicing fitness (ln) (30 °C) | self-splicing fitness (ln) (37 °C)
GUUCAGCAAUAUUACGCCGC | -4 ± 0.6 | -2.53 ± 0.54
ACAUAGCAAUAUUACGGAGC | -3.38 ± 0.53 | –
UUGGAGCAAUAUUACGCCAU | -2.36 ± 1.2 | 0.855 ± 0.84
AGUAAGCAAUAUUACGAGAA | -2.01 ± 0.57 | –
GCGGAGCAAUAUUACGGCGC | – | -1.44 ± 0.59
AAUUAGCAAUAUUACGGCCU | -0.324 ± 0.097 | 0.38 ± 0.16
GGCCAGCAAUAUUACGGCCC | – | -2.06 ± 0.57
UGGUAGCAAUAUUACGACGC | -2.5 ± 0.55 | –
AAUAAGCAAUAUUACGUAAC | -3.86 ± 0.54 | –
UGAUAGCAAUAUUACGUUCC | -1.67 ± 0.24 | -1.1 ± 0.4
CCGAAGCAAUAUUACGGACC | -2.68 ± 0.78 | –
GAAUAGCAAUAUUACGAGAU | -3.86 ± 0.23 | -1.22 ± 0.14
GUCUAGCAAUAUUACGGAGA | -3.18 ± 0.6 | -2.81 ± 0.62
GCGGAGCAAUAUUACGCACG | -4.08 ± 0.73 | -3.48 ± 0.73
UUGGAGCAAUAUUACGAUUC | -4.36 ± 0.73 | –
GCGUAGCAAUAUUACGUAAU | -2.81 ± 0.54 | –
CGUAAGCAAUAUUACGCUGC | -4.84 ± 0.72 | –
CUAGAGCAAUAUUACGCUCC | -2.45 ± 0.42 | -1.74 ± 0.66
GUGUAGCAAUAUUACGGACC | -3.48 ± 1.1 | –
AGGGAGCAAUAUUACGUAGG | -4.01 ± 0.52 | –

In a second layout: results already given
UGGUAGCAAUAUUACGACGC
  self-splicing fitness (ln) (30 °C): -2.5 ± 0.55
UGAUAGCAAUAUUACGUUCC
  self-splicing fitness (ln) (30 °C): -1.67 ± 0.24; self-splicing fitness (ln) (37 °C): -1.1 ± 0.4

Later entries

Sequence | self-splicing fitness (ln) (30 °C) | self-splicing fitness (ln) (37 °C)
CUUUAGCAAUAUUACGAAUU | -4.16 ± 0.72 | –
GUGUAGCAAUAUUACGCAGG | -5.23 ± 0.59 | –
CUGGAGCAAUAUUACGAUCA | -2.02 ± 1.2 | -2.56 ± 0.77
UAGUAGCAAUAUUACGUAUA | -1.69 ± 0.25 | -1.14 ± 0.27
ACUGAGCAAUAUUACGAGCU | -4.94 ± 0.72 | –
GGUGAGCAAUAUUACGUCCC | – | -1.54 ± 0.58
UGUUAGCAAUAUUACGAUCC | – | -1.42 ± 0.62
AUCGAGCAAUAUUACGAGAA | -1.59 ± 0.57 | –
CUUCAGCAAUAUUACGCAUA | -4.27 ± 0.37 | -1.82 ± 0.17
UCGAAGCAAUAUUACGUCGA | -3.65 ± 0.47 | -1.78 ± 0.19
CGGGAGCAAUAUUACGACUA | -1.96 ± 0.82 | -1.62 ± 0.6
UUCCAGCAAUAUUACGAUCU | -4.11 ± 0.59 | -2.08 ± 0.56
CGGCAGCAAUAUUACGGGAU | -3.24 ± 0.18 | -2.38 ± 0.23
CACGAGCAAUAUUACGAGAA | -3.13 ± 1 | –
UCUGAGCAAUAUUACGCCAA | -3.37 ± 0.56 | -1.51 ± 0.32
CCUAAGCAAUAUUACGCUGC | -4.51 ± 0.72 | –
CUCUAGCAAUAUUACGCGCC | – | -1.56 ± 0.61
AGAAAGCAAUAUUACGGACU | -0.691 ± 0.079 | 0.112 ± 0.089
GCUGAGCAAUAUUACGAUCC | -1.34 ± 0.15 | 0.743 ± 0.24
UUGCAGCAAUAUUACGAGCC | -3.83 ± 0.53 | –

Sequence | self-splicing fitness (ln) (30 °C) | self-splicing fitness (ln) (37 °C)
GCGGAGCAAUAUUACGUUCG | -3.43 ± 0.73 | –
CUGGAGCAAUAUUACGGUGC | – | -2.3 ± 0.56
GUAGAGCAAUAUUACGAAUA | -3.47 ± 0.61 | -2.05 ± 0.66
AAUGAGCAAUAUUACGCACC | -3.19 ± 0.78 | –
GCGGAGCAAUAUUACGGGCC | – | -0.458 ± 0.79
ACUGAGCAAUAUUACGACCC | -2.44 ± 0.68 | –
GGCGAGCAAUAUUACGGAAA | – | -1.61 ± 0.53
CCCGAGCAAUAUUACGCCCU | -2.66 ± 0.66 | –
UGUGAGCAAUAUUACGCUGA | – | -0.916 ± 0.59
GGGAAGCAAUAUUACGGGGC | – | -2.71 ± 0.53
CAUGAGCAAUAUUACGAACC | – | -0.902 ± 0.52
CCUGAGCAAUAUUACGCUAC | -4.29 ± 1.1 | -3.26 ± 1
CCUUAGCAAUAUUACGCACG | – | -0.935 ± 0.77
UACGAGCAAUAUUACGCGGA | -2.66 ± 0.76 | -1.77 ± 0.67
UACGAGCAAUAUUACGCCUU | – | -3.11 ± 0.61
CUCCAGCAAUAUUACGCCGC | – | -2.62 ± 0.75
CAACAGCAAUAUUACGAUGG | -0.426 ± 0.056 | 0.257 ± 0.075
ACAGAGCAAUAUUACGACAC | -2.65 ± 0.79 | -1.68 ± 0.53
UUCUAGCAAUAUUACGCUAC | – | -2.88 ± 0.75
